# Record: PubChem BioAssay AID743121 (NCATS, 2013)
# Screen: 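Genes whose silencing strengthens cell killing by camptothecin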 (primary screen)
# System: MDA-MB-231 cells, a human breast cancer line
# Reagent: single siRNA against human genes, 20 nM siRNA (0.8 pmol per well)
# Timing: 120 h (drug added 48 h after transfection, read 72 h later)
# Conditions: camptothecin 20 nM (about EC30) for 72 h; vehicle 0.1% DMSO in parallel plates
# Read-out: 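Cell viability by ATP luminescence (CellTiter-Glo) as % of non-targeting siRNA wells, and the log2 ratio of viability without drug over viability with camptothecin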
# Direction: log2 vehicle/camptothecin viability: higher = stronger sensitisation to camptothecin; viability with camptothecin: higher = more viable cells
# Hit rule: 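Active genes have an RSA gene-level p-value below 0.001, computed from the ratios of their separate siRNAs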
# Here is one part, drawn at random, of about 26,000 deposited reagents. 167 of all reagents (0.63%) were called active. 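Calls are per gene from RSA p-values that are not deposited; an individual active-marked siRNA can sensitise only weakly.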 The numbers tell different reagents against one gene apart. Further read-outs or replicates are left out here.
gene symbol,siRNA no.,log2 vehicle/camptothecin viability,viability with camptothecin (% of control),Call
OAT (GeneID 4942),1,0.519,57.5,inactive
OAT (GeneID 4942),2,-0.298,98.8,inactive
OAT (GeneID 4942),3,-0.579,83.3,inactive
SQOR (GeneID 58472),1,0.347,54,inactive
SQOR (GeneID 58472),2,-0.139,88.7,inactive
SQOR (GeneID 58472),3,-0.134,71,inactive
PCMT1 (GeneID 5110),1,0.296,65.5,inactive
PCMT1 (GeneID 5110),2,-0.524,82.4,inactive
PCMT1 (GeneID 5110),3,-0.0273,99.9,inactive
PCMT1 (GeneID 5110),4,-0.404,60.8,inactive
CLK2 (GeneID 1196),1,-0.373,134,inactive
CLK2 (GeneID 1196),2,0.0332,106,inactive
CLK2 (GeneID 1196),3,-0.0693,97.3,inactive
CLK2 (GeneID 1196),4,-0.543,41.9,inactive
LMTK1 (GeneID 9625),1,-0.196,118,inactive
LMTK1 (GeneID 9625),2,-0.396,84.7,inactive
LMTK1 (GeneID 9625),3,-0.176,97.8,inactive
LMTK1 (GeneID 9625),4,-0.211,59.6,inactive
SOD3 (GeneID 6649),1,-0.447,72.9,inactive
SOD3 (GeneID 6649),2,-0.119,91.6,inactive
SOD3 (GeneID 6649),3,-0.313,50.8,inactive
SOD3 (GeneID 6649),4,-0.126,70.1,inactive
SYNJ2 (GeneID 8871),1,-0.309,72.5,inactive
SYNJ2 (GeneID 8871),2,-0.243,64.7,inactive
SYNJ2 (GeneID 8871),3,-0.396,75.5,inactive
SYNJ2 (GeneID 8871),4,-0.395,104,inactive
TIMP1 (GeneID 7076),1,-0.171,94.3,inactive
TIMP1 (GeneID 7076),2,-0.474,96.1,inactive
TIMP1 (GeneID 7076),3,-0.0562,85.2,inactive
PRKD2 (GeneID 25865),1,0.0194,71.7,inactive
PRKD2 (GeneID 25865),2,0.394,62.4,inactive
PRKD2 (GeneID 25865),3,-0.377,21,inactive
PRKD2 (GeneID 25865),4,-0.624,85.7,inactive
SCNN1B (GeneID 6338),1,-0.663,69.2,inactive
SCNN1B (GeneID 6338),2,-0.366,82.4,inactive
SCNN1B (GeneID 6338),3,-0.21,87.9,inactive
SCNN1B (GeneID 6338),4,0.394,32.4,inactive
RNF151 (GeneID 146310),1,-0.425,85.3,inactive
RNF151 (GeneID 146310),2,0.0423,37.5,inactive
RNF151 (GeneID 146310),3,0.0575,69.1,inactive
RNF151 (GeneID 146310),4,0.0509,92,inactive
HBEGF (GeneID 1839),1,0.557,41.9,inactive
HBEGF (GeneID 1839),2,-0.0669,99.5,inactive
HBEGF (GeneID 1839),3,-0.386,102,inactive
HOXC13 (GeneID 3229),1,-0.0696,71.6,inactive
HOXC13 (GeneID 3229),2,0.0597,82.5,inactive
HOXC13 (GeneID 3229),3,0.187,26.1,inactive
DCK (GeneID 1633),1,0.199,82.7,inactive
DCK (GeneID 1633),2,0.242,84.8,inactive
DCK (GeneID 1633),3,-0.185,125,inactive
DCK (GeneID 1633),4,-0.274,71.4,inactive
TRAT1 (GeneID 50852),1,-0.186,107,inactive
TRAT1 (GeneID 50852),2,-0.33,35.1,inactive
TRAT1 (GeneID 50852),3,0.136,71.8,inactive
TRAT1 (GeneID 50852),4,-0.983,58.8,inactive
CDH3 (GeneID 1001),1,-0.0292,105,inactive
CDH3 (GeneID 1001),2,-0.305,64.2,inactive
CDH3 (GeneID 1001),3,-0.0996,76.9,inactive
CDH3 (GeneID 1001),4,-0.207,111,inactive
BAZ2B (GeneID 29994),1,1.21,34.3,inactive
BAZ2B (GeneID 29994),2,-0.464,38.2,inactive
BAZ2B (GeneID 29994),3,0.222,25.7,inactive
BAZ2B (GeneID 29994),4,0.138,84.1,inactive
GPR19 (GeneID 2842),1,-0.0152,98.9,inactive
GPR19 (GeneID 2842),2,0.313,27.3,inactive
GPR19 (GeneID 2842),3,-0.425,97.5,inactive
GPR19 (GeneID 2842),4,-0.137,70.3,inactive
USP34 (GeneID 9736),1,-0.273,40.3,inactive
USP34 (GeneID 9736),2,-0.0364,91.7,inactive
USP34 (GeneID 9736),3,0.632,52.4,inactive
USP34 (GeneID 9736),4,0.0569,95.4,inactive

11 of these entries, set out differently:
PCMT1 (GeneID 5110) #2
- log2 vehicle/camptothecin viability: -0.524
- viability with camptothecin (% of control): 82.4
- Call: inactive

PCMT1 (GeneID 5110) #3
- log2 vehicle/camptothecin viability: -0.0273
- viability with camptothecin (% of control): 99.9
- Call: inactive

PCMT1 (GeneID 5110) #4
- log2 vehicle/camptothecin viability: -0.404
- viability with camptothecin (% of control): 60.8
- Call: inactive

CLK2 (GeneID 1196) #1
- log2 vehicle/camptothecin viability: -0.373
- viability with camptothecin (% of control): 134
- Call: inactive

CLK2 (GeneID 1196) #2
- log2 vehicle/camptothecin viability: 0.0332
- viability with camptothecin (% of control): 106
- Call: inactive

CLK2 (GeneID 1196) #3
- log2 vehicle/camptothecin viability: -0.0693
- viability with camptothecin (% of control): 97.3
- Call: inactive

CLK2 (GeneID 1196) #4
- log2 vehicle/camptothecin viability: -0.543
- viability with camptothecin (% of control): 41.9
- Call: inactive

LMTK1 (GeneID 9625) #1
- log2 vehicle/camptothecin viability: -0.196
- viability with camptothecin (% of control): 118
- Call: inactive

LMTK1 (GeneID 9625) #2
- log2 vehicle/camptothecin viability: -0.396
- viability with camptothecin (% of control): 84.7
- Call: inactive

LMTK1 (GeneID 9625) #3
- log2 vehicle/camptothecin viability: -0.176
- viability with camptothecin (% of control): 97.8
- Call: inactive

LMTK1 (GeneID 9625) #4
- log2 vehicle/camptothecin viability: -0.211
- viability with camptothecin (% of control): 59.6
- Call: inactive
